Measurements reported in PubChem BioAssay AID1224830 (NIAID, 2016).

Screen: 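Host factors that control LPS-induced TNF expression in human macrophages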 (primary screen)
System: human THP-1 monocytic leukaemia cells, TNF dual-luciferase reporter clone, PMA-differentiated to macrophage-like cells
Reagent: siRNA pool against human genes, 50 nM
Duration: LPS for 4 h, given about 3 days after siRNA transfection
Treatment: bacterial LPS (TLR4 ligand), 10 ng/ml
Detection: 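TNF firefly reporter luminescence divided by renilla, normalised to the plate median, then turned into a robust z-score for each replicate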
Scale: TNF reporter robust z-score: higher = stronger TNF reporter response to LPS
Hit rule: 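Each well counts as active if its z-score is over 2.8 or under -1.5; controls are left without a call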
Here is an unselected part of about 18,000 reagents. Of all reagents, about 2,900 (16%) are marked active. 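Calls are made per well; low scores hint the gene aids the LPS response, high scores that it dampens it.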 Unmarked entries are inactive. Repeated entries: four replicate wells of each siRNA pool.

no.	gene	TNF reporter robust z-score
1	SLC2A8	1.11
2	SLC2A8	0.65
3	SLC2A8	-0.57
4	SLC2A8	0.74
5	MTMR6	-0.22
6	MTMR6	0.91
7	MTMR6	0.96
8	MTMR6	0.79
9	ST8SIA3	-1.05
10	ST8SIA3	-1.17
11	ST8SIA3	-0.42
12	PRIMPOL	1.48
13	PRIMPOL	0.78
14	PRIMPOL	1.34
15	PRIMPOL	0.79
16	DGKA	2.25
17	DGKA	2.44
18	DGKA	2.96 (active)
19	DGKA	0.22
20	F5	-0.84
21	F5	-0.19
22	F5	0.88
23	F5	-0.81
24	PIK3C2G	-1.61 (active)
25	PIK3C2G	-0.2
26	PIK3C2G	-0.66
27	PIK3C2G	0.3
28	PKP2	-0.32
29	PKP2	-0.36
30	PKP2	-0.48
31	PKP2	-0.5
32	GGNBP2	-0.7
33	GGNBP2	-0.67
34	GGNBP2	-0.4
35	GGNBP2	-0.54
36	OR4C11	0.07
37	OR4C11	-0.55
38	OR4C11	0.26
39	OR4C11	1.24
40	AP2A1	-1.22
41	AP2A1	-0.3
42	AP2A1	-0.03
43	CYP20A1	-0.84
44	CYP20A1	-0.06
45	CYP20A1	-0.6
46	CYP20A1	0.54
47	SYT8	0.27
48	SYT8	0.37
49	SYT8	0.94
50	SYT8	0.61
51	NKX2-3	-1.51 (active)
52	NKX2-3	-0.99
53	NKX2-3	-1.21
54	NKX2-3	-1.04
55	CAPG	-0.01
56	CAPG	-0.16
57	CAPG	1.28
58	CAPG	0.12
59	CIMAP2	-0.81
60	CIMAP2	0.13
61	CIMAP2	0.03
62	CIMAP2	-0.16
63	PADI6	0.01
64	PADI6	0.54
65	PADI6	0.15
66	PADI6	1.18

The results go on:
no.	gene	TNF reporter robust z-score
67	COMP	0.5
68	COMP	0.17
69	COMP	0.48
70	COMP	1.6
71	ORC3	-0.29
72	ORC3	-0.6
73	ORC3	0.07
74	ORC3	-0.13
75	NCKAP5L	0.49
76	NCKAP5L	1.75
77	NCKAP5L	0.25
78	NCKAP5L	1.7
79	NAT2	0.66
80	NAT2	-0.59
81	NAT2	0.11
82	NAT2	0.04
83	AP3M2	-1.3
84	AP3M2	-0.87
85	AP3M2	-0.96
86	AP3M2	-0.64
87	ZNF322P1	0.4
88	ZNF322P1	-0.61
89	ZNF322P1	-0.06
90	SELPLG	0.17
91	SELPLG	-0.82
92	SELPLG	-0.98
93	SELPLG	-0.52
94	CWF19L1	-1.26
95	CWF19L1	-0.1
96	CWF19L1	-1.17
97	CWF19L1	-0.97
98	HES5	-1.09
99	HES5	-0.19
100	HES5	-0.81
101	HES5	0.22
102	CDC42BPB	-1.22
103	CDC42BPB	-1.2
104	CDC42BPB	0.14
105	CDC42BPB	0.2
106	SH3GL2	1.19
107	SH3GL2	0.48
108	SH3GL2	-0.4
109	SH3GL2	0.22
110	NUDT22	-0.68
111	NUDT22	-0.99
112	NUDT22	-0.9
113	PLA2G2F	0.26
114	PLA2G2F	0.02
115	PLA2G2F	-0.22
116	PLA2G2F	-0.47
117	PRODH2	-0.2
118	PRODH2	1.35
119	PRODH2	0.37
120	PRODH2	0
121	ERAP1	2.1
122	ERAP1	-0.1
123	ERAP1	0.24
124	ERAP1	1.34
125	LRRC32	1.18
126	LRRC32	2.13
127	LRRC32	-0.73
128	LRRC32	-0.21
129	TDRD7	-1.41
130	TDRD7	-0.97
131	TDRD7	-1.31
132	TDRD7	-0.46
133	IGF2BP2	-0.51
134	IGF2BP2	0.1
135	IGF2BP2	0.01
136	IGF2BP2	0.03
137	HTRA1	-0.25
138	HTRA1	0.3
139	HTRA1	1.88
140	HTRA1	0.56
